For the data set, the system named is tall fescue. Nature of the data set: Metabolic profiling of tall fescue-endophyte associations in the endogenous host (LCMS alkaloid profile). The data set is classed as in vivo, Lolium arundinaceum. More on the design: key to Alkaloid profile Peramine / Alkaloid profile Lolines / Alkaloid profile Lolitrem B: +Alkaloid present; − Alkaloid absent; key to Alkaloid profile Ergovaline: +^L: ^L= Low; +^M: ^M= Medium; +^H: ^H= High. The conditions noted are these: Table 15, pseudostem.

The amount applied is not stated for every result.

Consider `Cn1c(CCCN=C(N)N)cn2cccc2c1=O` [compound 1, peramine], for which, for the setting “qualitative”, the “Alkaloid profile Lolines” value is “+” and the “Alkaloid profile Lolitrem B” value is recorded as “−”. Also, the “Alkaloid profile Ergovaline” value (relative quantitation of ergovaline levels) is on record as “+^M”.

11,12-epoxy janthitrem G [compound 4]: for the setting “qualitative”, the “Alkaloid profile Peramine” value was “+”.

The values above are taken from patent publication US10881060B2, “Endophytes and related methods” (Agriculture Victoria Services PTY LTD, priority 2010, dated 2021).
